Assay results: PubChem BioAssay AID493014 (National Center for Advancing Translational Sciences (NCATS), 2011)
Hit rate of the full screen: of about 340,000 compounds, about 170 (0.05%) were called active. This list was built around the results that the source calls inconclusive (neither active nor inactive); the mix of calls is not that of the screen. Calls follow the shape of the dose curve; as a rule, active = well fitted inhibition curve with a large enough effect in the signal ratio, with a control signal flat (not every such curve was filed as active); inconclusive = small, poorly fitted or top-dose-only effect, or effect the other way, or a change in a side signal; inactive = flat fitted curve, though single readings scatter; the % refers to the signal ratio. Potencies beside an inconclusive call are fits to weak or partial responses and may not hold up.

Assay: qHTS Assay to Find Inhibitors of Chronic Active B-Cell Receptor Signaling;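 as to activity change, negative = inhibition: plate controls were basal doxycycline-induced cells for no effect and cells given 10 µM MG132 for full effect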
Conditions: ABC-DLBCL IkBa-CBG/CBR reporter, luminescence ratio (green luciferase fused to IkBa over red control in TMD8 lymphoma cells), 4 h; activity change, negative = inhibition: at 46.1 µM (top of the series)
Procedure, shortened: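 Doxycycline induced both beetle luciferases in TMD8 lymphoma cells; IKK-driven degradation limits the IkappaBalpha-fused green signal, while red luminescence normalises for cell number and nonspecific effects. Compounds tested up to 46 uM, 4 hrs.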
Potency is read from the fitted curve at half-maximal effect.

Row | Structure (SMILES) | activity change, negative = inhibition | Potency
1 | COCCNC(=O)C(c1cccs1)N(C(=O)Cn1nnc2ccccc21)c1ccc(OC)cc1 (centres undefined) | inactive: 13.8% | 
2 | CC1=C(C(=O)OCCCBr)C(c2ccc3c(c2)OCO3)NC(=O)N1 (centres undefined) | inactive: -6.97% | 
3 | CCCn1nnc(NC(=S)NC(=O)Cc2ccccc2)n1 | inconclusive: 165% [cytotoxic] | 
4 | O=C(CSc1nc(-c2ccccc2)cc(C(F)(F)F)n1)NCc1cccs1 | inactive: 5.7% | 
5 | Cc1ccc2nc(NC(=O)C3CCCN(S(=O)(=O)c4cccc5nsnc45)C3)sc2c1 (centres undefined) | inconclusive: -10.8% | 
6 | O=C(NCC1CCCO1)C1c2ccccc2C(=O)N1Cc1ccc2c(c1)OCO2 (centres undefined) | inactive: 0.651% | 
7 | CCn1ccnc1CN1CCc2c([nH]c3ccccc23)C1C1CCCCC1 (centres undefined) | inconclusive: -4.43% | 
8 | O=C(NNC(=O)c1n[nH]c2ccccc12)c1ccccc1 |  | inconclusive: 16.4 µM [falling, single point]
9 | CC(=O)Oc1ccccc1N(C(C)=O)S(=O)(=O)c1ccc2ccccc2c1 |  | inconclusive: 31.6 µM [falling, single point]
10 | O=S(=O)(c1ccc(Cl)c(NC(=S)Nc2cccc(O)c2)c1)N1CCOCC1 | inactive: -0.969% | 
11 | COc1ccc(NCC(=O)Nc2ccc(C#N)cc2)cc1Cl | inconclusive: 4.94% | 
12 | CC(=O)Nc1ccc(NC(=O)CSc2nnc(NC(=O)c3cccc(F)c3)s2)cc1 |  | inconclusive: 20 µM [falling, single point]
13 | CN[C@H](C(=O)NC[C@H]1O[C@@H](n2cnc3c(N)ncnc32)[C@H](O)[C@@H]1O)[C@@H](C)OCc1ccccc1 | inactive: 6.59% | 
14 | Cc1oc(-c2cccc(Br)c2)nc1CN1CCC(C(=O)NCc2ccccc2)CC1 | inactive: 25.5% | 
15 | Cc1ccc(NC(=O)c2ccc(F)c(S(=O)(=O)NCCc3ccccc3)c2)cc1F | inconclusive: 14.8% | 
16 | CCOC(=O)C1(Cc2cccc(F)c2)CCN(C(=O)C2CCC2)CC1 |  | inconclusive: 35.5 µM [falling, single point]
17 | O=C(Cn1nnc(-c2ccccc2Cl)n1)NCc1ccc2c(c1)OCO2 |  | inconclusive: 7.31 µM [falling, partial curve]
18 | CCOC(=O)c1cc(CC)sc1NC(=O)CN1CCN(C(=O)c2ccco2)CC1 | inactive: -0.552% | 
19 | CCOc1ccc(-n2c(SCC(=O)Nc3ccc(Br)cc3)nc3n[nH]c(C)c3c2=N)cc1 |  | inconclusive: 14.1 µM [rising, single point]
20 | C=CCOc1ccc(/C(CC)=N/O)c(OC)c1 | inconclusive: -1.27% | 
21 | Cc1c(Cl)cccc1N(Cc1ccc(C(=O)O)cc1)S(=O)(=O)c1ccccc1 | inconclusive: 7.74% | 
22 | Cc1nn(-c2ccccc2)c2nc(-c3ccco3)cc(C(=O)O)c12 | inactive: 0.0487% | 
23 | CCN1CCN(c2nc(Nc3ccccc3)nc(N)c2[N+](=O)[O-])CC1 | inconclusive: -0.144% | 
24 | COc1ccc(CCN2C(=O)C3C4CC(C5C(C(=O)O)=NOC45)C3C2=O)cc1OC (centres undefined) |  | inconclusive: 0.092 µM [falling, full curve, poor fit]
25 | CCC(C)NC(=O)c1ccc(CSCc2ccc(Cl)cc2)o1 (centres undefined) | inactive: 2.66% | 
26 | CCOc1ccc2nc(N(Cc3cccnc3)C(=O)c3ccco3)sc2c1 | inconclusive: -3.1% | 
27 | Cc1cc(N2CCOCC2)n2ncc(-c3ccccc3Cl)c2n1 | inactive: -0.0286% | 

Fetched by structure from the entries so far:
Row | Structure (SMILES) | activity change, negative = inhibition | Potency
6 | O=C(NCC1CCCO1)C1c2ccccc2C(=O)N1Cc1ccc2c(c1)OCO2 (centres undefined) | inactive: 0.651% | 
5 | Cc1ccc2nc(NC(=O)C3CCCN(S(=O)(=O)c4cccc5nsnc45)C3)sc2c1 (centres undefined) | inconclusive: -10.8% | 

Next compounds.

Row | Structure (SMILES) | activity change, negative = inhibition | Potency
28 | CC(=O)c1cccc(NC(=O)CSc2ncc(C(=O)Nc3ccccc3)c(=O)n2C)c1 | inactive: -25.2% | 
29 | CC(C)(C)C(=O)Nc1ccc(C(=O)NNC(=O)c2ccccc2)cc1 | inconclusive: 7.08% | 
30 | O=C(COc1ccccc1)NC(NC(=S)Nc1ccccc1O)C(Cl)(Cl)Cl (centres undefined) | inconclusive: -18.2% | 
31 | Cc1cc(C(=O)NNC(=S)Nc2ccccc2)nn1C |  | inconclusive: 31.6 µM [rising, single point]
32 | COc1cc2c(cc1OC)-c1cc(N3CCc4ccccc43)nc(=O)n1CC2 |  | inconclusive: 0.708 µM [falling, full curve, poor fit]
33 | CCOCC(=O)Nc1cc(C(=O)NCCc2ccccc2)ccc1Cl |  | inconclusive: 35.5 µM [rising, single point]
34 | Cc1cc(C)n(-c2nnc(C)n2/N=C/c2ccccc2OCc2ccccc2Cl)n1 |  | inconclusive: 25.1 µM [falling, single point]
35 | CCc1ccc(C(CNC(=O)c2ccc3c(=O)n(-c4ccccc4F)c(=S)[nH]c3c2)N(C)C)cc1 (centres undefined) | inconclusive: -2.28% | 
36 | CN1CCN(C(=O)c2ccc3nc(-c4ccccc4)c(-c4ccccc4)nc3c2)CC1 | inconclusive: -6.07% | 
37 | COc1cc2c(cc1OC)[C@@H](NC(=O)CCc1ccccc1)[C@H](O)C2 | inconclusive: 1.24% | 
38 | CCN(C(=O)COC(=O)c1cccnc1Nc1ccccc1F)C1CCS(=O)(=O)C1 (centres undefined) |  | inconclusive: 0.184 µM [falling, partial curve, poor fit]
39 | CCCc1cc(NCc2ccccn2)n2nc(C)c(-c3ccccc3)c2n1 | inactive: -9.5% | 
40 | COc1ccc(C(C)=O)cc1COc1ccccc1[N+](=O)[O-] | inconclusive: 2.31% | 
41 | Cc1ccc(C)c(S(=O)(=O)N2CCN(C(=O)c3sccc3C)CC2)c1 | inactive: -8.56% | 
42 | Cc1ccc(C(=O)N2CCC(Cc3ccccc3)CC2)cc1[N+](=O)[O-] | inconclusive: -13.1% | 
43 | N#C/C(=N\Nc1ccc(Cl)cc1)C(=O)c1ccccc1 |  | inconclusive: 29.1 µM [falling, single point]
44 | CN1C(=O)/C(=C\c2ccccc2F)Sc2ccc(C(=O)NC3CCN(Cc4ccccc4)CC3)cc21 |  | inconclusive: 25.1 µM [falling, single point]
45 | c1ccc(OCCCCn2cnc3ccccc32)cc1 | inconclusive: 3.96% | 
46 | Cc1nonc1C(=O)N/N=C/c1ccncc1 | inconclusive: -7.54% | 
47 | COc1ccc(CC(=O)OCC(=O)N2CCN(S(=O)(=O)c3ccc(C)cc3C)CC2)cc1 | inactive: -1.07% | 
48 | C=CC[C@H](CC(=O)OC(C)(C)C)C(=O)OC[C@@H]1CCCN1C(=O)[C@@H](CC=C)CC(=O)NCCO | inconclusive: 2.24% | 
49 | O=C(CSc1nc(-c2ccc(F)cc2)cs1)N1CCc2ccccc21 | inconclusive: -0.0544% | 
50 | COc1ccc(C(=O)NC(Nc2ccc(C)cc2)C(Cl)(Cl)Cl)cc1 (centres undefined) | inconclusive: -7.78% | 
51 | CCOP(=O)(O)c1ccccc1OCCOc1ccccc1P(=O)(O)OCC |  | inconclusive: 1.84 µM [rising, partial curve, poor fit]
52 | c1ccc(C[C@H]2CN=C(Nc3ccccc3)N2CCC2CCCC2)cc1 |  | inconclusive: 20.6 µM [falling, single point]
53 | COc1ccccc1Nc1nnc(SCc2cc(=O)n3ccsc3n2)s1 |  | inconclusive: 15.8 µM [falling, single point]
54 | COc1ccc(/C=N/NC(=O)c2cnccn2)c(OC)c1OC | inactive: 0.624% | 

Looked up above.
In activity change, negative = inhibition, Cc1ccc(C)c(S(=O)(=O)N2CCN(C(=O)c3sccc3C)CC2)c1 shows inactive: -8.56%
In activity change, negative = inhibition, CCCc1cc(NCc2ccccn2)n2nc(C)c(-c3ccccc3)c2n1 shows inactive: -9.5%
In activity change, negative = inhibition, CCOC(=O)c1cc(CC)sc1NC(=O)CN1CCN(C(=O)c2ccco2)CC1 shows inactive: -0.552%

More entries follow:

Row | Structure (SMILES) | activity change, negative = inhibition | Potency
55 | Cc1cccnc1NC(=O)NC(=O)c1ccc(C(C)(C)C)s1 | inactive: -0.412% | 
56 | CSCC(=O)N1CCCC(N2CCN(c3cccc(C(F)(F)F)c3)CC2)C1 (centres undefined) | inactive: 3.3% | 
57 | O=C(CNC(=O)c1ccc(Br)cc1)N=Nc1c(O)[nH]c2ccc([N+](=O)[O-])cc12 | inconclusive: -2.3% | 
58 | O=C(NCC1COc2ccccc2O1)c1ccco1 (centres undefined) | inconclusive: 1.34% | 
59 | COc1ccc(C(CNC(=O)COc2ccc(-c3ccccc3)cc2)N2CCOCC2)cc1 (centres undefined) |  | inconclusive: 35.5 µM [falling, single point]
60 | Cc1ccc(S(=O)(=O)CCSC(=N)N)cc1 |  | inconclusive: 22.4 µM [cytotoxic, partial curve]
61 | CCCC(=O)Nc1cc(-c2nc3ncccc3o2)ccc1C | inconclusive: 4.84% | 
62 | CC(C)(C)NC(=O)C1CC(=O)N(CCc2ccc(F)cc2)C1 (centres undefined) | inactive: 1.83% | 
63 | CC1CCCN(C(=O)CSc2nnc(-c3cccs3)o2)C1 (centres undefined) | inactive: 3.91% | 
64 | CCOC(=O)N1CCN(c2c(NCCN3CCN(Cc4ccccc4)CC3)c(=O)c2=O)CC1 | inconclusive: 16.9% | 
65 | CC(=O)c1ccc(N(C(=O)CNC(=O)c2ccco2)C(C(=O)NC2CCCC2)c2ccncc2)cc1 (centres undefined) | inactive: 0.398% | 
66 | COc1ccc(Cl)cc1/C=C/c1ccc2cccc(O)c2n1 | inconclusive: -19.3% | 
67 | c1ccc(-c2nc(-c3ccc(-c4ccon4)s3)no2)cc1 |  | inconclusive: 11.2 µM [falling, single point]
68 | COC(=O)c1ccc(CSc2ccccc2C)o1 | inconclusive: -7.62% | 
69 | COc1ccc(N2CCN(C(=O)c3ccncc3)CC2)cc1 | inactive: -8.07% | 
70 | COc1nccc(-c2ccc(F)cc2)c1C#N | inconclusive: 0.815% | 
71 | CCOc1nc(C)ccc1-c1noc(-c2cccnc2)n1 | inconclusive: 6.18% | 
72 | Cc1nc(NC(=O)/C=C/c2ccc(Cl)cc2Cl)sc1C(=O)N(C)C |  | inconclusive: 13 µM [falling, partial curve]
73 | O=C(CSc1ncn[nH]1)N1N=C2/C(=C/c3ccco3)CCCC2C1c1ccco1 (centres undefined) |  | inconclusive: 14.6 µM [rising, partial curve]
74 | C=C(C)Cn1c(Sc2nc3ccccc3[nH]2)nc2c1c(=O)[nH]c(=O)n2C |  | inconclusive: 11.2 µM [falling, partial curve]
75 | CC1Cc2cc(/C=C3/SC(=S)NC3=O)ccc2O1 (centres undefined) | inconclusive: 7.02% | 
76 | COc1ccc(Cc2nc3ccc(S(N)(=O)=O)cc3[nH]2)cc1OC | inconclusive: 9.26% | 
77 | COCCCNC(=O)CNC(=S)N(Cc1cc(OC)c(OC)c(OC)c1)C1CCCC1 | inconclusive: -4.05% | 
78 | COc1cccc(C(=O)Nc2nnc(-c3ccc(Cl)cc3)o2)c1 |  | inconclusive: 11.2 µM [falling, partial curve]
79 | Cc1ccc([N+](=O)[O-])cc1S(=O)(=O)N1CCn2cccc2C1c1ccccc1 (centres undefined) |  | inconclusive: 20 µM [rising, partial curve, poor fit]
